# Data: patent EP1964562A1, “PHARMACEUTICAL COMPOSITIONS CONTAINING DERIVATIVE SUBSTANCES OF THIAZOLIDINEDIONES COMBINED WITH A BIGUANIDE FOR USE IN TYPE 2 DIABETES MELLITUS” (priority 2005, dated 2007)
# At least one structure is not confirmed: it was looked up by name or label, or the drawing left a doubt.
# Assays:
# [1] = system: animal models of diabetes; conditions: cited from earlier work
# [2] = system: patients diagnosed with DM2 and obesity; assay: Example 2: multicentric, randomized, double blind placebo-controlled trial, 12 weeks; format: in vivo; conditions: compared to levels at admission
# Description: A multicentric, randomized, double blind placebo-controlled trial was conducted. In which 300 patients diagnosed with DM2 and obesity were included. The object of the study was to establish the reduction in lipid profile and in overweight.
# [3] = system: individuals diagnosed with DM2 and obesity; assay: Example 1: multicentric, randomized, double blind placebo-controlled trial, 8 weeks; format: in vivo, patients
# Description: A multicentric, randomized, double blind placebo-controlled trial was conducted. In which 600 individuals diagnosed with DM2 and obesity with a BMI higher than 35 kg/m^2 were included.
compound,measurement,setting,value
"CCc1ccc(CCOc2ccc(CC3SC(=O)NC3=O)cc2)nc1 (stereo not shown) [pioglitazone, Pioglitazone]","hyperglycemia, hyperinsulinemia and hypertriglyceridemia",[1]; animal models of diabetes,reduces
same,blood glucose,[1]; animal models that lack endogenous insulin,does not reduce
same,reduction in triglycerides,[2],no significant reduction
same,patients' weight change,[3],increased
